Results on 1 molecule are retold here after the supplement of paper PMC8728848.

Some of the results follow.

What all share (assay): glycan array binding signal (z-score within array); higher = stronger binding
Conditions in all cases: glycan notation: IUPAC condensed, linker removed

Test [1] concerns the target Gal(b1-4)GlcNAc(b1-3)Gal(b1-4)GlcNAc(b1-2)[Gal(b1-4)GlcNAc(b1-3)Gal(b1-4)GlcNAc(b1-6)]Man(a1-6)[Gal(b1-4)GlcNAc(b1-3)Gal(b1-4)GlcNAc(b1-2)Man(a1-3)]Man(b1-4)GlcNAc(b1-4)GlcNAc. In outline:
(§1)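 Glycan array data came from 3228 arrays in the Consortium for Functional Glycomics database, and only arrays with an available protein sequence were kept. Glycan names were put into IUPAC-condensed notation, and columns mapping to the same glycan were averaged. The binding signal is a within-array Z-score, averaged across arrays of one protein sequence run at different concentrations or buffers and across linkers. A negative Z-score can be read as non-binding.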

Test [2] deals with Gal(b1-4)GlcNAc(b1-3)Gal(b1-4)GlcNAc(b1-2)[Gal(b1-4)GlcNAc(b1-3)Gal(b1-4)GlcNAc(b1-6)]Man(a1-6)[Gal(b1-4)GlcNAc(b1-3)Gal(b1-4)GlcNAc(b1-2)Man(a1-3)]Man(b1-4)GlcNAc(b1-4)[Fuc(a1-6)]GlcNAc. In outline:
as §1

Test [3] deals with Gal(b1-4)GlcNAc(b1-3)Gal(b1-4)GlcNAc(b1-3)Gal(b1-4)GlcNAc. In outline: as §1
In test [4] the target is Gal(b1-4)GlcNAc(b1-3)Gal(b1-4)GlcNAc(b1-3)Gal(b1-4)GlcNAc(b1-2)Man(a1-3)[Gal(b1-4)GlcNAc(b1-3)Gal(b1-4)GlcNAc(b1-3)Gal(b1-4)GlcNAc(b1-2)Man(a1-6)]Man(b1-4)GlcNAc(b1-4)GlcNAc. In outline:
as §1

Test [5] deals with Gal(b1-4)GlcNAc(b1-3)Gal(b1-4)GlcNAc(b1-3)Gal(b1-4)GlcNAc(b1-2)Man(a1-3)[Gal(b1-4)GlcNAc(b1-3)Gal(b1-4)GlcNAc(b1-3)Gal(b1-4)GlcNAc(b1-2)Man(a1-6)]Man(b1-4)GlcNAc(b1-4)[Fuc(a1-6)]GlcNAc. In outline:
as §1

For test [6], the target named is Gal(b1-4)GlcNAc(b1-3)Gal(b1-4)GlcNAc(b1-3)Gal(b1-4)GlcNAc(b1-2)[Gal(b1-4)GlcNAc(b1-3)Gal(b1-4)GlcNAc(b1-3)Gal(b1-4)GlcNAc(b1-6)]Man(a1-6)[Gal(b1-4)GlcNAc(b1-3)Gal(b1-4)GlcNAc(b1-3)Gal(b1-4)GlcNAc(b1-2)Man(a1-3)]Man(b1-4)GlcNAc(b1-4)[Fuc(a1-6)]GlcNAc. The procedure, abridged: as §1
Test [7] concerns the target Gal(b1-4)GlcNAc(b1-3)Gal(b1-4)GlcNAc(b1-3)Gal(b1-4)GlcNAc(b1-3)Gal(b1-4)GlcNAc(b1-2)Man(a1-3)[Gal(b1-4)GlcNAc(b1-3)Gal(b1-4)GlcNAc(b1-3)Gal(b1-4)GlcNAc(b1-3)Gal(b1-4)GlcNAc(b1-2)Man(a1-6)]Man(b1-4)GlcNAc(b1-4)GlcNAc. The procedure, abridged: as §1
The target in test [8] is Gal(b1-4)GlcNAc(b1-3)Gal(b1-4)GlcNAc(b1-3)Gal(b1-4)GlcNAc(b1-3)Gal(b1-4)GlcNAc(b1-2)Man(a1-3)[Gal(b1-4)GlcNAc(b1-3)Gal(b1-4)GlcNAc(b1-3)Gal(b1-4)GlcNAc(b1-3)Gal(b1-4)GlcNAc(b1-2)Man(a1-6)]Man(b1-4)GlcNAc(b1-4)[Fuc(a1-6)]GlcNAc. The procedure, abridged: as §1
The target of test [9] is Gal(b1-4)GlcNAc(b1-3)Gal(b1-4)GlcNAc(b1-3)Gal(b1-4)GlcNAc(b1-3)Gal(b1-4)GlcNAc(b1-2)[Gal(b1-4)GlcNAc(b1-3)Gal(b1-4)GlcNAc(b1-3)Gal(b1-4)GlcNAc(b1-3)Gal(b1-4)GlcNAc(b1-6)]Man(a1-6)[Gal(b1-4)GlcNAc(b1-3)Gal(b1-4)GlcNAc(b1-3)Gal(b1-4)GlcNAc(b1-3)Gal(b1-4)GlcNAc(b1-2)Man(a1-3)]Man(b1-4)GlcNAc(b1-4)[Fuc(a1-6)]GlcNAc. The procedure, abridged:
as §1

Test [10] concerns the target Gal(b1-4)GlcNAc(b1-3)Gal(b1-4)GlcNAc(b1-3)Gal(b1-4)GlcNAc(b1-3)Gal(b1-4)GlcNAc(b1-3)Gal(b1-4)GlcNAc(b1-2)Man(a1-3)[Gal(b1-4)GlcNAc(b1-3)Gal(b1-4)GlcNAc(b1-3)Gal(b1-4)GlcNAc(b1-3)Gal(b1-4)GlcNAc(b1-3)Gal(b1-4)GlcNAc(b1-2)Man(a1-6)]Man(b1-4)GlcNAc(b1-4)GlcNAc. The procedure, abridged: as §1
In test [11] the target is Gal(b1-4)GlcNAc(b1-3)Gal(b1-4)GlcNAc(b1-3)Gal(b1-4)GlcNAc(b1-3)Gal(b1-4)GlcNAc(b1-3)Gal(b1-4)GlcNAc(b1-2)Man(a1-3)[Gal(b1-4)GlcNAc(b1-3)Gal(b1-4)GlcNAc(b1-3)Gal(b1-4)GlcNAc(b1-3)Gal(b1-4)GlcNAc(b1-3)Gal(b1-4)GlcNAc(b1-2)Man(a1-6)]Man(b1-4)GlcNAc(b1-4)[Fuc(a1-6)]GlcNAc. The procedure, abridged: as §1
The target of test [12] is Gal(b1-4)GlcNAc(b1-3)Gal(b1-4)GlcNAc(b1-3)Gal(b1-4)GlcNAc(b1-3)Gal(b1-4)GlcNAc(b1-3)Gal(b1-4)GlcNAc(b1-2)[Gal(b1-4)GlcNAc(b1-3)Gal(b1-4)GlcNAc(b1-3)Gal(b1-4)GlcNAc(b1-3)Gal(b1-4)GlcNAc(b1-3)Gal(b1-4)GlcNAc(b1-6)]Man(a1-6)[Gal(b1-4)GlcNAc(b1-3)Gal(b1-4)GlcNAc(b1-3)Gal(b1-4)GlcNAc(b1-3)Gal(b1-4)GlcNAc(b1-3)Gal(b1-4)GlcNAc(b1-2)Man(a1-3)]Man(b1-4)GlcNAc(b1-4)[Fuc(a1-6)]GlcNAc. In outline:
as §1

Test [13] deals with Gal(b1-4)GlcNAc(b1-3)Gal(b1-4)GlcNAc(b1-3)Gal(b1-4)GlcNAc(b1-3)Gal(b1-4)GlcNAc(b1-3)Gal(b1-4)GlcNAc(b1-3)Gal(b1-4)GlcNAc(b1-2)Man(a1-3)[Gal(b1-4)GlcNAc(b1-3)Gal(b1-4)GlcNAc(b1-3)Gal(b1-4)GlcNAc(b1-3)Gal(b1-4)GlcNAc(b1-3)Gal(b1-4)GlcNAc(b1-3)Gal(b1-4)GlcNAc(b1-2)Man(a1-6)]Man(b1-4)GlcNAc(b1-4)GlcNAc. The procedure, abridged:
as §1

For test [14], the target named is Gal(b1-4)GlcNAc(b1-3)Gal(b1-4)GlcNAc(b1-3)GalNAc. In outline: as §1
In test [15] the target is Gal(b1-4)GlcNAc(b1-3)Gal(b1-4)GlcNAc(b1-3)[Gal(b1-4)GlcNAc(b1-3)Gal(b1-4)GlcNAc(b1-6)]GalNAc. In outline:
as §1

B1: Awp1 (Candida glabrata) (protein)
chain: MSLITIFAFLIKATLVLSLDILTPTTLTGDQTFNEDVSVVSSLTLNDGSQYLFNNLLQIAPSSASVTANALAAVSVFTFSLPPSSSLSNSGTLIISNSNTGPSTEQHIVITPNVMANTGTITLSLAHTNTDSSSTLIIDPVTFYNTGTINYESIGSETNDPSLTGNILSIGSSGRTLQNLGTINLNAANSYYLLGTITENSGSINVQKGFLYVNALDFIGNTINLSTTTALAFISPVSQVVRVRGVFFGNIIASVGSSGTFSYNTQTGILTVTTNGVYSYDIGCGYNPALMSGQQETLSFQGNPYDTFLVLVNQPIPSDLTCAAVSSSITPSSSVEPSSSVVPSSSVEPSSSVEPSSSVEPSSSVEPSSSVEPSSSVEPSSSVEPSSSVEPSSSVEPSSSVEPSSSVEPSSSVEPSSSVEPSSSVEPSSSVEPSSSVEPSSSVEPSSSVEPSSSVEPSSLIVPSSSVEPSSSVLPSSSVVPSSSVEPSTPPIPSSSVEPSSSVVPSSPAVPSSSVEPSTPPIPSSSVVSASVFDTSSTLPSSPSVPPSSVSPSTISTPSSSAAPSSFCPTCVSSGTPPAPSSSAIVPTSSAGGGNGGDNREPGAAGQPGAAGQPGAAGQPGAAGQPGAAGQPGAAGQPGAAGQPGAAGQPGAAGQPGAAGQPGAGFGVGSEQPTPGAGAGSGSADGNQSGTGSGTGNGQQGSGQAGSGQAGSGQEGSGQAGSGQAGSGQAGSGQAGSGQAGLDNTASGQSEGGQASAMDGDQSGRDGQSNSGSLLQPNAQQGTGSGTGSDIGADQASGESPGQIGDAQPGSGTDQSSGRHSLAAEARTSQSHSLAADARTRSTTRQTSVIAPDTAPGTASGTAPGTAPGTAVVTTFHGCGTVNHKGMINILLALALLVLL
Turning to B1, the “glycan array binding signal (z-score)” value is -0.003 in test [1]; -0.77 in test [2]; 1.27 in [3]; 1.2 in test [4]; -0.421 in test [5]; 0.728 in [6]. For the same molecule, the “glycan array binding signal (z-score)” value in test [7] is -0.315; in [8] it was 2.42; in test [9] it was 0.79; in test [10], 0.16; in test [11], 1.18; in test [12], 0.917. Moreover, the “glycan array binding signal (z-score)” value is -0.272 in test [13], 0.867 in test [14] and 0.058 in test [15].
